Article PMC9243820
No constants are given. Whether binding was seen depends on the method and setting. In cells and extracts the contact can be indirect. Some entries that bind do so weakly or less than the wild type.

Chains of the proteins cited; added tags and fusions are not shown.
UniProt P35637: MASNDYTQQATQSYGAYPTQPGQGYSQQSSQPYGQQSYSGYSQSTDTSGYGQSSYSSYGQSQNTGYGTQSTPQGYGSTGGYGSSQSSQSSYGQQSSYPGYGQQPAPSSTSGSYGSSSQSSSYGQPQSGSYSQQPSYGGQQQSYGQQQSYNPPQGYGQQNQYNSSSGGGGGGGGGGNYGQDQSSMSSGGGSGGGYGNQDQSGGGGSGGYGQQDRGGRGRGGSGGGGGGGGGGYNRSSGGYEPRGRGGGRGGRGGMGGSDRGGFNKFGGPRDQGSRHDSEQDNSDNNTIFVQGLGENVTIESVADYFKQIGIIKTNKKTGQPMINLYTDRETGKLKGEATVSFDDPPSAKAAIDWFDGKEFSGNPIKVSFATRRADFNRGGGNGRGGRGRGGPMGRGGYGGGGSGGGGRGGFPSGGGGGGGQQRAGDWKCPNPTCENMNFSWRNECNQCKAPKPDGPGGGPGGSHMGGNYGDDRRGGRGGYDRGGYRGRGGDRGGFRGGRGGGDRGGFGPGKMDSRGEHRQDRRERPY
UniProt Q09472: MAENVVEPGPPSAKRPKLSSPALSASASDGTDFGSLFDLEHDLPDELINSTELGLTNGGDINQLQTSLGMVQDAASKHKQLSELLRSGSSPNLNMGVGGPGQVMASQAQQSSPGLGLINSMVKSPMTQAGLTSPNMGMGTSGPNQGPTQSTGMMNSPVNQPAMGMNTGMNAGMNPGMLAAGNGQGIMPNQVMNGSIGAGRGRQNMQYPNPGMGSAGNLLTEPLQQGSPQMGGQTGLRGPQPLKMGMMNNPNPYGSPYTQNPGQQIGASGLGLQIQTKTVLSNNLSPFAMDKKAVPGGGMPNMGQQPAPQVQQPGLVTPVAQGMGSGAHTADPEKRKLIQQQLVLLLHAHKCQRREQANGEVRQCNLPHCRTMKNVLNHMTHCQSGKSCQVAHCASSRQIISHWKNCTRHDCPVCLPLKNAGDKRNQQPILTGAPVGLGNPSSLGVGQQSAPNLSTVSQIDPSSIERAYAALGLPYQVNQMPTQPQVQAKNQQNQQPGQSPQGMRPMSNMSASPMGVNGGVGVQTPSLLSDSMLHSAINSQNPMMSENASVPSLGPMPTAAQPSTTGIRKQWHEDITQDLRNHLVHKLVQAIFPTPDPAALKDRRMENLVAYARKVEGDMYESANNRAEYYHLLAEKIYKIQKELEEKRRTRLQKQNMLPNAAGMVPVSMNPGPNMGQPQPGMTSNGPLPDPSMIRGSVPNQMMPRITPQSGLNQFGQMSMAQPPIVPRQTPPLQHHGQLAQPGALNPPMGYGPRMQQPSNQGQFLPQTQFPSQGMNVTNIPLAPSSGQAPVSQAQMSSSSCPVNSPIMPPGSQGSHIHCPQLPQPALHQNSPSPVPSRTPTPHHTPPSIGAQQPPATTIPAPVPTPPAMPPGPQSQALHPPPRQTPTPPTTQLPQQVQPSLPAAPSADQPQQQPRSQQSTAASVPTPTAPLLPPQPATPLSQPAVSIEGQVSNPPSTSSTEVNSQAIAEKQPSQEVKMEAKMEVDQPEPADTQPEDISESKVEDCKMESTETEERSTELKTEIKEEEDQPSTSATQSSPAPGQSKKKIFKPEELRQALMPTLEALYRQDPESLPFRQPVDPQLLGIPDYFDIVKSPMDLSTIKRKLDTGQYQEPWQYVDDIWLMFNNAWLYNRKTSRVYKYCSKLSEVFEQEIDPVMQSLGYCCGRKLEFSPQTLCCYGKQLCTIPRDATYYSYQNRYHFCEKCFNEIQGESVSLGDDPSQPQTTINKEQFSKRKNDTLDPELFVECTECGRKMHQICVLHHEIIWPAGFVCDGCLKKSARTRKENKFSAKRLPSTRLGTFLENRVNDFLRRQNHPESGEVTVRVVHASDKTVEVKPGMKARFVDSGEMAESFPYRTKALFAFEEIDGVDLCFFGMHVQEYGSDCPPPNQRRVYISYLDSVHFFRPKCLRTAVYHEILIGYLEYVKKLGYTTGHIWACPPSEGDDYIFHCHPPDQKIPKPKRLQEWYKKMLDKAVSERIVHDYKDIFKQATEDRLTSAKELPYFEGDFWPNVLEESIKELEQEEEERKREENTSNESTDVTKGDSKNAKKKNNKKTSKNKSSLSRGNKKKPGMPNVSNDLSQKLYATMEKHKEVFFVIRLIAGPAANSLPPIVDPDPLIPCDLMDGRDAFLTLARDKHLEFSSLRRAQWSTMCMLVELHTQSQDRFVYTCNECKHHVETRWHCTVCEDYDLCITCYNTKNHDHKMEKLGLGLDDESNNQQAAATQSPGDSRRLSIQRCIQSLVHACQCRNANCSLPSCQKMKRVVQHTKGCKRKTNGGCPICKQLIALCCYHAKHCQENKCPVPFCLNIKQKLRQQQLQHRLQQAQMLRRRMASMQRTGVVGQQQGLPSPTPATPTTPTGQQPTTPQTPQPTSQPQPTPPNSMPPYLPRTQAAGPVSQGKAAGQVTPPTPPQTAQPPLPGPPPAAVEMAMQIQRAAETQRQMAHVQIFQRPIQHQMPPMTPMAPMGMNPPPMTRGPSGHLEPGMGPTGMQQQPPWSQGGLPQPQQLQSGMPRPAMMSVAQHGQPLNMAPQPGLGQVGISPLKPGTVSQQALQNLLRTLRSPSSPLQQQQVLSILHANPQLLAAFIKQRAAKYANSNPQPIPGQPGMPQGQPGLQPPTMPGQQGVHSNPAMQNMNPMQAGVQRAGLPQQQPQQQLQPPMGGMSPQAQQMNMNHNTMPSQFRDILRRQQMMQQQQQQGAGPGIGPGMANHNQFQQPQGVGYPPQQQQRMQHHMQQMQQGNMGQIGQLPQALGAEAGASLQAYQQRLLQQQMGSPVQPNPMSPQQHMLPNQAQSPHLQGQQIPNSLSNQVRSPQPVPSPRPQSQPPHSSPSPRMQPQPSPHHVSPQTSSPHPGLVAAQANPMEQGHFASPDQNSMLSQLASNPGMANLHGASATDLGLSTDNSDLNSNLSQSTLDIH

Target: fused in sarcoma (FUS) (human (endogenous in ESCC cells)) (UniProt P35637)
Assay: co-IP; co-IP with both anti-FUS and anti-p300 antibodies in ESCC cells, endogenous proteins

binding: binds
Substance: p300 (from UniProt Q09472 1-2414)
